The source of these data is PubChem BioAssay AID342 (DTP/NCI, 2004).

SMILES strings stand for the structures. The list does not hold the whole screen: it covers a few groups of compounds. Other doses and runs of a compound may be missing. T/C is the treated group as % of the vehicle group. Schedules are NCI's codes, read here as Q, the interval in days (D) or hours (H), X, the number of doses. Some entries were tested several times; their values stand side by side, smallest first. Some schedules carry Z or #; the key to these is not given. Some entries show no survivor count and are marked so; the dose need not have been tolerated. Some T/C values are followed by the survivors on the day toxicity was checked; where neither a count nor a note follows, no animal had died by that day. Some doses have a count of surviving animals in place of a T/C: the source holds a T/C of zero for them, seemingly a mark for toxic or unscored doses. Counts of survivors are from the toxicity check, whose day is not always given; animals may have died later.

The assay deals with Swiss mice, Sarcoma 180 sc, mean tumor weight T/C. Nature of the assay: NCI In Vivo Anticancer Drug Screen. Data for tumor model Sarcoma 180 (subcutaneous) in Swiss mice. The settings on record: T/C endpoint: mean tumor weight, higher T/C = larger tumour. As to the method: The antitumor activity of compounds was measured in mice bearing transplantable tumors. Survival or tumor size were measured and the results are expressed as the measurement made in the treated group (T) divided by the measurement made in the vehicle treated control group (C). The tumor model used in this assay is Sarcoma 180 (subcutaneous) in Swiss mice

Setting [1] is: dose: 50.0 mg/kg/injection, schedule: Q#A X014 (ip), vehicle: methylcellulose (MC), evaluated on day 8.
[2] abbreviates: dose: 12.5 mg/kg/injection, schedule: Q01DX007 (ip), vehicle: carboxymethylcellulose (CMC), evaluated on day 8.

For the compound `CC1=C2C(=CC(C)(C)C2O)C(O)C(C)(O)C12CC2` (stereo unspecified), the T/C is 49 % of control (dose: 0.25 mg/kg/injection, schedule: Q01DX007 (ip), vehicle: saline, evaluated on day 8); 72 % of control (dose: 0.5 mg/kg/injection, schedule: Q01DX007 (ip), vehicle: saline, evaluated on day 8); 63 % of control (dose: 1.0 mg/kg/injection, schedule: Q01DX007 (ip), vehicle: saline, evaluated on day 8); 103 % of control (dose: 2.0 mg/kg/injection, schedule: Q01DX007 (ip), vehicle: saline, evaluated on day 8); 109 % of control [5 of 6 alive] (dose: 4.0 mg/kg/injection, schedule: Q01DX007 (ip), vehicle: saline, evaluated on day 8); 126 % of control (dose: 8.0 mg/kg/injection, schedule: Q01DX007 (ip), vehicle: saline, evaluated on day 8). For the same compound, the T/C by setting is: (dose: 16.0 mg/kg/injection, schedule: Q01DX007 (ip), vehicle: saline, evaluated on day 8) 98 and 104 % of control; (dose: 32.0 mg/kg/injection, schedule: Q01DX007 (ip), vehicle: saline, evaluated on day 8) 95 and 134 % of control; (dose: 64.0 mg/kg/injection, schedule: Q01DX007 (ip), vehicle: saline, evaluated on day 8) 79 % of control; (dose: 128.0 mg/kg/injection, schedule: Q01DX007 (ip), vehicle: saline, evaluated on day 8) 64 % of control.

As for `O[C@H](CNCCCl)[C@@H](O)CNCCCl`, the T/C is, setting by setting: (dose: 3.8 mg/kg/injection, schedule: Q#A X014 (ip), vehicle: methylcellulose (MC), evaluated on day 8) 77 % of control; (dose: 5.65 mg/kg/injection, schedule: Q#A X014 (ip), vehicle: methylcellulose (MC), evaluated on day 8) 48 % of control [5 of 6 alive]; (dose: 8.5 mg/kg/injection, schedule: Q#A X014 (ip), vehicle: methylcellulose (MC), evaluated on day 8) 40 % of control. Moreover, the survivor count (dose: 12.5 mg/kg/injection, schedule: Q#A X014 (ip), vehicle: methylcellulose (MC)) is listed as 1 of 6.

Take `O=P(Nc1ncccn1)(N1CC1)N1CC1`: the T/C was 66 and 76 % of control (dose: 7.0 mg/kg/injection, schedule: Q01DX007 (ip), vehicle: saline, evaluated on day 8); 29 and 61 % of control (dose: 10.0 mg/kg/injection, schedule: Q01DX007 (ip), vehicle: saline, evaluated on day 8); 27 [5 of 6 alive], 28 [4 of 6 alive], 34 % of control [5 of 6 alive] (dose: 15.0 mg/kg/injection, schedule: Q01DX007 (ip), vehicle: saline, evaluated on day 8); 25 % of control [5 of 6 alive] (dose: 23.0 mg/kg/injection, schedule: Q01DX007 (ip), vehicle: saline, evaluated on day 8). Further, the survivor count runs as follows: (dose: 23.0 mg/kg/injection, schedule: Q01DX007 (ip), vehicle: saline) 1 of 6; (dose: 53.0 mg/kg/injection, schedule: Q01DX007 (ip), vehicle: saline) 0 of 6.

With `CC(C)N(CCCl)/N=N/c1nc2nc(N)[nH]c(=O)c2[nH]1`, the T/C is, setting by setting: (dose: 12.5 mg/kg/injection, schedule: Q#A X014 (ip), vehicle: methylcellulose (MC), evaluated on day 8) 85 % of control; (dose: 25.0 mg/kg/injection, schedule: Q#A X014 (ip), vehicle: methylcellulose (MC), evaluated on day 8) 85 % of control; under setting [1], 62 % of control; (dose: 100.0 mg/kg/injection, schedule: Q#A X014 (ip), vehicle: methylcellulose (MC), evaluated on day 8) 56 % of control [4 of 6 alive].

For `CCOP(=O)(CC)OCCCCOP(=O)(CC)OCC` (stereo unspecified), the T/C is 96 % of control [survivor count not shown] (dose: 4.0 mg/kg/injection, schedule: Q01DX007 (ip), vehicle: saline, evaluation day not shown); 112 % of control [survivor count not shown] (dose: 6.0 mg/kg/injection, schedule: Q01DX007 (ip), vehicle: saline, evaluation day not shown); 117 % of control [survivor count not shown] (dose: 8.0 mg/kg/injection, schedule: Q01DX007 (ip), vehicle: saline, evaluation day not shown).

Consider `CCOP(C)(=O)OCCCCOP(C)(=O)OCC` (stereo unspecified), for which the T/C (dose: 10.0 mg/kg/injection, schedule: Q01DX007 (ip), vehicle: saline, evaluation day not shown) was 90 % of control [survivor count not shown]; the T/C (dose: 15.0 mg/kg/injection, schedule: Q01DX007 (ip), vehicle: saline, evaluation day not shown) was 82 % of control [survivor count not shown]; the T/C (dose: 20.0 mg/kg/injection, schedule: Q01DX007 (ip), vehicle: saline, evaluation day not shown) was 84 % of control [survivor count not shown].

For the compound `O=C(O)/C=C\c1cccc(N(CCCl)CCCl)c1`, the T/C runs as follows: (dose: 3.12 mg/kg/injection, schedule: Q01DX007 (ip), vehicle: carboxymethylcellulose (CMC), evaluated on day 8) 122 % of control; (dose: 6.25 mg/kg/injection, schedule: Q01DX007 (ip), vehicle: carboxymethylcellulose (CMC), evaluated on day 8) 74 % of control; under setting [2], 68 % of control; (dose: 22.0 mg/kg/injection, schedule: Q#A X014 (ip), vehicle: methylcellulose (MC), evaluated on day 8) 62 and 72 % of control; (dose: 33.0 mg/kg/injection, schedule: Q#A X014 (ip), vehicle: methylcellulose (MC), evaluated on day 8) 27 and 41 % of control; under setting [1], 18 [5 of 6 alive] and 25 % of control. Further, the T/C by setting is: (dose: 53.0 mg/kg/injection, schedule: Q01DX007 (ip), vehicle: carboxymethylcellulose (CMC), evaluated on day 8) 17 % of control [4 of 6 alive]; (dose: 75.0 mg/kg/injection, schedule: Q#A X014 (ip), vehicle: methylcellulose (MC), evaluated on day 8) 14 [5 of 6 alive] and 16 % of control. For the same compound, the survivor count is 1 of 6 (dose: 80.0 mg/kg/injection, schedule: Q01DX007 (ip), vehicle: carboxymethylcellulose (CMC)); 0 of 6 (dose: 200.0 mg/kg/injection, schedule: Q01DX007 (ip), vehicle: carboxymethylcellulose (CMC)); 0 of 6 (dose: 300.0 mg/kg/injection, schedule: Q01DX007 (ip), vehicle: carboxymethylcellulose (CMC)); 0 of 6 (dose: 450.0 mg/kg/injection, schedule: Q01DX007 (ip), vehicle: carboxymethylcellulose (CMC)); 0 of 6 (dose: 675.0 mg/kg/injection, schedule: Q01DX007 (ip), vehicle: carboxymethylcellulose (CMC)).

As for `O=C(O)COc1ccc(N(CCCl)CCCl)cc1`, the T/C (dose: 2.2 mg/kg/injection, schedule: Q#A X014 (ip), vehicle: methylcellulose (MC), evaluated on day 8) is 55 [5 of 6 alive] and 68 % of control; the T/C (dose: 3.3 mg/kg/injection, schedule: Q#A X014 (ip), vehicle: methylcellulose (MC), evaluated on day 8) was 12 and 53 % of control; the T/C (dose: 5.0 mg/kg/injection, schedule: Q#A X014 (ip), vehicle: methylcellulose (MC), evaluated on day 8) was 10 and 26 % of control; the T/C (dose: 7.5 mg/kg/injection, schedule: Q#A X014 (ip), vehicle: methylcellulose (MC), evaluated on day 8) was 10 [5 of 6 alive] and 19 % of control; the T/C (dose: 10.0 mg/kg/injection, schedule: Q01DX007 (ip), vehicle: other, evaluated on day 8) is 6 % of control; the T/C (dose: 15.0 mg/kg/injection, schedule: Q01DX007 (ip), vehicle: carboxymethylcellulose (CMC), evaluated on day 8) is 15 % of control [5 of 7 alive]. In addition, the T/C (dose: 15.0 mg/kg/injection, schedule: Q01DX007 (ip), vehicle: other, evaluated on day 8) is 7 % of control [4 of 6 alive] and the T/C (dose: 22.0 mg/kg/injection, schedule: Q01DX007 (ip), vehicle: carboxymethylcellulose (CMC), evaluated on day 8) is 18 % of control [5 of 7 alive]. Besides, the survivor count (dose: 33.0 mg/kg/injection, schedule: Q01DX007 (ip), vehicle: carboxymethylcellulose (CMC)) was 4 of 7.

`CC[C@H](C)[C@@H]1NC(=O)/C(=C(\C)O)C1=O`: the T/C reads like this: under setting [2], 93 % of control; (dose: 25.0 mg/kg/injection, schedule: Q01DX007 (ip), vehicle: carboxymethylcellulose (CMC), evaluated on day 8) 113 % of control [5 of 6 alive]. Further, the survivor count by setting is: (dose: 50.0 mg/kg/injection, schedule: Q01DX007 (ip), vehicle: carboxymethylcellulose (CMC)) 3 of 6; (dose: 100.0 mg/kg/injection, schedule: Q01DX007 (ip), vehicle: carboxymethylcellulose (CMC)) 0 of 6.
